Patent US20120142667A1, “PYRIMIDINE DERIVATIVES AS ZAP-70 INHIBITORS” (priority 2009, published 2012)
Some results were stated once for a whole list of compounds, not compound by compound.

System: Calcium Ion Release in Cells
Experiment: calcium release assay (measurement of calcium ion release in cells)
Type: cell-based
Settings: calcium release assay as described in WO-A 2009/080638

N-(2-((5-chloro-2-((5-(3-hydroxypropoxy)-2-methylphenyl)amino)pyrimidin-4-yl)amino)-5-methoxyphenyl)methanesulfonamide [Example 101]
IC50: ≤ 1000 nM
